According to patent US10005838B2, “Milk fat globule epidermal growth factor 8 regulates fatty acid uptake” (REGENTS OF THE UNIVERSITY OF CALIFORNIA, priority 2013, dated 2018):
At least one structure is not confirmed: it was looked up by name or label, or the drawing left a doubt.

Experiments:
RhoA = assay: Active RhoA GST pull-down in antrum; design: species or system mouse; conditions: antrum treated 30 minutes with wortmannin (100 ng/ml), then MCh 15 minutes
antral smooth muscle = assay: Force of antral smooth muscle ring contraction; design: species or system mouse; conditions: antral rings treated 15 min with wortmannin 100 nm
FATP1 = assay: Plasma membrane FATP1 expression in primary adipocytes; assay type: cell-based, mouse; conditions: Mfge8−/− adipocytes treated with rMfge8 and wortmannin
Experimental: (§1) Following tissue preparation and SDS-PAGE, membranes were incubated with a polyclonal antibody against Akt (Cell Signaling Technology), or Rictor (Cell Signaling); Anti-PGC1 alpha antibody (abcam); a monoclonal antibody against Phospho-Akt Ser473 (Cell Signaling), Phospho-Rictor Thr1135 (Cell Signaling), GAPDH (Cell Signaling), or Mfge8 (R&D Systems). For evaluation of total AKT and total Rictor, membranes that been blotted for phospho-AKT and phospho-Rictor were stripped and reprobed. Plasma membrane and post-plasma membrane fractions were isolated as previously described (Nishiumi, S. & Ashida, H., Biosci Biotechnol Biochem 71, 2343-2346 (2007)).

primary mouse adipocytes = assay: Fluorescent fatty acid uptake assay in primary mouse adipocytes; assay type: cell-based; conditions: Mfge8−/− adipocytes treated with rMfge8
Experimental: Uptake of fatty acids by differentiated 3T3-L1 adipocytes or primary mouse adipocytes was assessed using a QBT Fatty Acid Uptake Kit (Molecular Devices). Cells were plated in triplicate in 96-well plates at a concentration of 25,000 cells per well in 100 μl of DMEM/10% FCS. Plates were centrifuged at 1000 rpm for 4 minutes and incubated at 37° Celsius for 4-5 hours. Cells were then serum deprived for 1 hour before treatment with recombinant proteins for 30 minutes followed by the addition of QBT Fatty Acid Uptake solution. […] Plates were incubated in a fluorescent plate reader at 37° Celsius and kinetic readings were acquired every 20 seconds for 30 minutes. Fluorescence values were plotted against time and data was expressed as relative fluorescent units per minutes×10^3.
Primary mouse adipocytes were obtained from epididymal fat pads by collagenase digestion in Krebs-HEPES (KRBH) buffer followed by filtering through a 100 μm strainer which was then washed with an additional 7.5 mL KRBH buffer. […] After the last aspiration, adipocytes were resuspended in 0.5-1.0 mL and counted. […]

CD36 = assay: Plasma membrane CD36 expression in primary cells; assay type: cell-based, mouse; conditions: Mfge8−/− cells incubated with rMfge8 and wortmannin
Experimental: as §1

AKT at serine 473 = assay: Western blot, AKT phosphorylation in 3T3-L1 cells; assay type: cell-based, mouse; conditions: 3T3-L1 adipocytes treated with rMfge8; wortmannin 100 nM
Experimental: as §1

In the case of `COC[C@H]1OC(=O)c2coc3c2[C@@]1(C)C1=C(C3=O)[C@@H]2CCC(=O)[C@@]2(C)C[C@H]1OC(C)=O` [wortmannin, reference compound], the RhoA activation (RhoA) was “prevents”, the “exaggerated Mfge8−/− antral ring contraction in response to MCh” value (antral smooth muscle) was “prevents” and the “inhibition of rMfge8-induced increase in membrane FATP1” value (FATP1) was “inhibited”. For the same compound, the “inhibition of the increase in fatty acid uptake induced by rMfge8” value (primary mouse adipocytes) was “inhibited”, the “inhibition of rMfge8-induced increase in membrane CD36” value (CD36) was “completely inhibited” and the “inhibition of rMfge8-induced AKT phosphorylation” value (AKT at serine 473) was “completely blocked”.
